Source: US11858993B2, “Multi-specific antibodies with affinity for human A33 antigen and DOTA metal complex and uses thereof” (Memorial Sloan Kettering Cancer Center, priority 2015, dated 2024)

Assays:
[1] = tested on: A33-positive SW1222 tumor; experiment: Estimation of absorbed doses and therapeutic index for PRIT; type: in vivo, mice; settings: ratio of absorbed doses; single-cycle PRIT
Text: Exemplary estimates of absorbed doses for tumor and select normal tissue in female athymic mice carrying s.c. A33 positive-colorectal cancer tumors for PRIT including the optimum huA33-C825 and dextran-clearing agent doses are set forth in Table 6.

SW1222 s.c. xenografts = experiment: Three-cycle theranostic PRIT with nanoSPECT/CT dosimetry; type: in vivo, Nude mice; settings: three-cycle PRIT (total 165 MBq)
Procedure: Nude mice bearing established SW1222 s.c. xenografts (n=20; tumor volume=102±40 mm^3; average±standard deviation (SD)) underwent treatment (n=5-10/group) with either: no treatment (n=5), ^177Lu-DOTA-Bn only (n=5), or a three-cycle PRIT regimen consisting of anti-GPA33 PRIT+55 MBq of ^177Lu-DOTA-Bn (n=10; total: 165 MBq). Serial nanoSPECT/CT imaging was conducted on five randomly selected mice undergoing DPRIT up to 160 hours post-injection of the first cycle of ^177Lu-DOTA-Bn for dosimetry calculations.

huA33-C825: bispecific antibody: humanized A33 IgG1 with murine C825 anti-DOTA-Bn scFv linked to the light chain C-terminus
Therapeutic Index, tumor to Blood [1]: 73 | Therapeutic Index, tumor to Bone [1]: 110 | Therapeutic Index, tumor to Heart [1]: 47 | Therapeutic Index, tumor to Kidneys [1]: 12 | Therapeutic Index, tumor to Large Intestine [1]: 82 | Therapeutic Index, tumor to Liver [1]: 10 | Therapeutic Index, tumor to Lung [1]: 37 | Therapeutic Index, tumor to Muscle [1]: 219 | Therapeutic Index, tumor to Small Intestine [1]: 132 | Therapeutic Index, tumor to Spleen [1]: 10 | Therapeutic Index, tumor to Stomach [1]: 110 | therapeutic index (TI), blood (SW1222 s.c. xenografts): 93 | therapeutic index (TI), kidney (SW1222 s.c. xenografts): 16
